This is one part of the list. Repeats are few or missing, and single values can be far off.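 Imaging used 1,536-well plates; nuclei positive for cleaved PARP by antibody were divided by total DNA-stained nuclei to yield the apoptosis fraction. Doses for screening kept most cells viable, and cell lines differ markedly in resting and induced cleaved-PARP levels.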
Tested on: WM1716
Assay: cleaved PARP positive nuclei fraction relative to DMSO control; melanoma cells; higher = more apoptosis
Settings: library dose: low library concentration; 72 h

Row | Structure (SMILES) | cleaved PARP positive nuclei fraction [%]
1 | Cc1cc(Nc2cc(N3CCN(C)CC3)nc(Sc3ccc(NC(=O)C4CC4)cc3)n2)n[nH]1 [Tozasertib] + C[C@@H](Oc1cc(-c2cnn(C3CCNCC3)c2)cnc1N)c1c(Cl)ccc(F)c1Cl [Crizotinib] (first compound 0.006 µM, partner dose 0.2 µM) | 50.5
2 | O=C(Nc1cc(C(F)(F)F)cc(C(F)(F)F)c1)c1cc(Cl)ccc1O + COCC[n+]1c2c(n(Cc3cnccn3)c1C)C(=O)c1ccccc1C2=O [YM155] (first compound 0.016 µM, partner dose 0.0004 µM) | 99.3
3 | O=c1[nH]nc(Sc2ncc([N+](=O)[O-])s2)n1-c1ccc2c(c1)OCCO2 + CCCCCCCCc1ccc(CCC(N)(CO)CO)cc1 [fingolimod] (first compound 0.2 µM, partner dose 2 µM) | 39.4

Tested on: WM1745
Assay: as above
Settings: library dose: low library concentration; 72 h

Row | Structure (SMILES) | cleaved PARP positive nuclei fraction [%]
4 | Cc1cn(-c2cc(NC(=O)c3ccc(C)c(Nc4nccc(-c5cccnc5)n4)c3)cc(C(F)(F)F)c2)cn1 [nilotinib] + NC(=O)c1ccc(N(C(N)=O)c2c(F)cccc2F)nc1-c1ccc(F)cc1F [VX702] (first compound 0.2 µM, partner dose 0.4 µM) | 95.6
5 | CC[C@]1(O)C[C@H]2CN(CCc3c([nH]c4ccccc34)[C@@](C(=O)OC)(c3cc4c(cc3OC)N(C=O)[C@H]3[C@@](O)(C(=O)OC)[C@H](OC(C)=O)[C@]5(CC)C=CCN6CC[C@]43[C@@H]65)C2)C1 [vincristine] + C[C@@H](N)c1ccc(C(=O)Nc2ccnc3[nH]ccc23)cc1 [RKI983] (first compound 0.0001 µM, partner dose 0.4 µM) | 163
6 | Cc1cn(-c2cc(NC(=O)c3ccc(C)c(Nc4nccc(-c5cccnc5)n4)c3)cc(C(F)(F)F)c2)cn1 [nilotinib] + CC(C)C[C@H](NC(=O)[C@H](Cc1ccccc1)NC(=O)c1cnccn1)B(O)O [Bortezomib] (first compound 0.2 µM, partner dose 0.001 µM) | 108
7 | O=C(Nc1cc(C(F)(F)F)cc(C(F)(F)F)c1)c1cc(Cl)ccc1O + CC(=O)c1c(C)c2cnc(Nc3ccc(N4CCNCC4)cn3)nc2n(C2CCCC2)c1=O [palbociclib] (first compound 0.016 µM, partner dose 0.04 µM) | 116
8 | O=C(Nc1cc(C(F)(F)F)cc(C(F)(F)F)c1)c1cc(Cl)ccc1O + OCc1c[nH]c2ccccc12 [Indole-3-carbinol] (first compound 0.016 µM, partner dose 0.8 µM) | 84.8
9 | COc1cc([C@@H]2c3cc4c(cc3[C@@H](O[C@@H]3O[C@@H]5CO[C@@H](C)O[C@H]5[C@H](O)[C@H]3O)[C@H]3COC(=O)[C@H]23)OCO4)cc(OC)c1O [etoposide] + CS(=O)(=O)CCNCc1ccc(-c2ccc3ncnc(Nc4ccc(OCc5cccc(F)c5)c(Cl)c4)c3c2)o1 [lapatinib] (first compound 0.02 µM, partner dose 0.8 µM) | 227
10 | CCCCCCCCCCCCCCCCCCOP(=O)([O-])OC1CC[N+](C)(C)CC1 [Perifosine] + NC1(c2ccc(-c3nc4ccn5c(=O)[nH]nc5c4cc3-c3ccccc3)cc2)CCC1 [MK2206] (first compound 0.4 µM, partner dose 0.4 µM) | 125
11 | N#CC[C@H](C1CCCC1)n1cc(-c2ncnc3[nH]ccc23)cn1 [ruxolitinib] + COc1ccc(Cl)c(Nc2nc3ccccc3nc2NS(=O)(=O)c2cccc(NC(=O)C(C)(C)N)c2)c1 [XL147] (first compound 1 µM, partner dose 0.8 µM) | 83.8
12 | O=C(Nc1cc(C(F)(F)F)cc(C(F)(F)F)c1)c1cc(Cl)ccc1O + COc1ccc(C2=N[C@@H](c3ccc(Cl)cc3)[C@@H](c3ccc(Cl)cc3)N2C(=O)N2CCNC(=O)C2)c(OC(C)C)c1 [Nutlin-3] (first compound 0.016 µM, partner dose 0.1 µM) | 76.9
13 | Cc1cc(Nc2cc(N3CCN(C)CC3)nc(Sc3ccc(NC(=O)C4CC4)cc3)n2)n[nH]1 [Tozasertib] + CC[C@]1(O)C[C@H]2CN(CCc3c([nH]c4ccccc34)[C@@](C(=O)OC)(c3cc4c(cc3OC)N(C=O)[C@H]3[C@@](O)(C(=O)OC)[C@H](OC(C)=O)[C@]5(CC)C=CCN6CC[C@]43[C@@H]65)C2)C1 [vincristine] (first compound 0.006 µM, partner dose 0.0001 µM) | 123
14 | CC[C@]1(O)C[C@H]2CN(CCc3c([nH]c4ccccc34)[C@@](C(=O)OC)(c3cc4c(cc3OC)N(C=O)[C@H]3[C@@](O)(C(=O)OC)[C@H](OC(C)=O)[C@]5(CC)C=CCN6CC[C@]43[C@@H]65)C2)C1 [vincristine] + COc1ccc(Cl)c(Nc2nc3ccccc3nc2NS(=O)(=O)c2cccc(NC(=O)C(C)(C)N)c2)c1 [XL147] (first compound 0.0001 µM, partner dose 0.8 µM) | 110
15 | Cc1cn(-c2cc(NC(=O)c3ccc(C)c(Nc4nccc(-c5cccnc5)n4)c3)cc(C(F)(F)F)c2)cn1 [nilotinib] + COc1ccc(Cl)c(Nc2nc3ccccc3nc2NS(=O)(=O)c2cccc(NC(=O)C(C)(C)N)c2)c1 [XL147] (first compound 0.2 µM, partner dose 0.8 µM) | 110
16 | Cc1cc(Nc2cc(N3CCN(C)CC3)nc(Sc3ccc(NC(=O)C4CC4)cc3)n2)n[nH]1 [Tozasertib] + Nc1nc(F)nc2c1ncn2[C@@H]1O[C@H](CO)[C@@H](O)[C@@H]1O [fludarabine] (first compound 0.006 µM, partner dose 0.2 µM) | 119
17 | O=C(/C=C/c1cccnc1)NCCCCC1CCN(C(=O)c2ccccc2)CC1 + CCCS(=O)(=O)Nc1ccc(F)c(C(=O)c2c[nH]c3ncc(Cl)cc23)c1F [PLX4720] (first compound 0.01 µM, partner dose 0.08 µM) | 475
18 | O=C(/C=C/c1cccnc1)NCCCCC1CCN(C(=O)c2ccccc2)CC1 + CC(=O)c1c(C)c2cnc(Nc3ccc(N4CCNCC4)cn3)nc2n(C2CCCC2)c1=O [palbociclib] (first compound 0.01 µM, partner dose 0.04 µM) | 112
19 | CCCCCCCCCCCCCCCCCCOP(=O)([O-])OC1CC[N+](C)(C)CC1 [Perifosine] + CCCCCCCCc1ccc(CCC(N)(CO)CO)cc1 [fingolimod] (first compound 0.4 µM, partner dose 2 µM) | 99
20 | CC[C@]1(O)C[C@H]2CN(CCc3c([nH]c4ccccc34)[C@@](C(=O)OC)(c3cc4c(cc3OC)N(C=O)[C@H]3[C@@](O)(C(=O)OC)[C@H](OC(C)=O)[C@]5(CC)C=CCN6CC[C@]43[C@@H]65)C2)C1 [vincristine] + Nc1ncn([C@H]2C[C@H](O)[C@@H](CO)O2)c(=O)n1 [decitabine] (first compound 0.0001 µM, partner dose 0.1 µM) | 98.8
21 | O=c1[nH]nc(Sc2ncc([N+](=O)[O-])s2)n1-c1ccc2c(c1)OCCO2 + CC1(C)CCC(c2ccc(Cl)cc2)=C(CN2CCN(c3ccc(C(=O)NS(=O)(=O)c4ccc(N[C@H](CCN5CCOCC5)CSc5ccccc5)c(S(=O)(=O)C(F)(F)F)c4)cc3)CC2)C1 [ABT263] (first compound 0.2 µM, partner dose 0.4 µM) | 540
22 | O=c1[nH]nc(Sc2ncc([N+](=O)[O-])s2)n1-c1ccc2c(c1)OCCO2 + C=C(c1ccc(C(=O)O)cc1)c1cc2c(cc1C)C(C)(C)CCC2(C)C [Bexarotene] (first compound 0.2 µM, partner dose 2 µM) | 89.2
23 | CC[C@]1(O)C[C@H]2CN(CCc3c([nH]c4ccccc34)[C@@](C(=O)OC)(c3cc4c(cc3OC)N(C=O)[C@H]3[C@@](O)(C(=O)OC)[C@H](OC(C)=O)[C@]5(CC)C=CCN6CC[C@]43[C@@H]65)C2)C1 [vincristine] + COc1ccc(C2=N[C@@H](c3ccc(Cl)cc3)[C@@H](c3ccc(Cl)cc3)N2C(=O)N2CCNC(=O)C2)c(OC(C)C)c1 [Nutlin-3] (first compound 0.0001 µM, partner dose 0.1 µM) | 135
24 | COc1cc([C@@H]2c3cc4c(cc3[C@@H](O[C@@H]3O[C@@H]5CO[C@@H](C)O[C@H]5[C@H](O)[C@H]3O)[C@H]3COC(=O)[C@H]23)OCO4)cc(OC)c1O [etoposide] + C[C@@H](Oc1cc(-c2cnn(C3CCNCC3)c2)cnc1N)c1c(Cl)ccc(F)c1Cl [Crizotinib] (first compound 0.02 µM, partner dose 0.2 µM) | 94.4
25 | CC[C@]1(O)C[C@H]2CN(CCc3c([nH]c4ccccc34)[C@@](C(=O)OC)(c3cc4c(cc3OC)N(C=O)[C@H]3[C@@](O)(C(=O)OC)[C@H](OC(C)=O)[C@]5(CC)C=CCN6CC[C@]43[C@@H]65)C2)C1 [vincristine] + OCc1c[nH]c2ccccc12 [Indole-3-carbinol] (first compound 0.0001 µM, partner dose 0.8 µM) | 119
26 | O=c1[nH]nc(Sc2ncc([N+](=O)[O-])s2)n1-c1ccc2c(c1)OCCO2 + Cn1cnc2c(F)c(Nc3ccc(Br)cc3Cl)c(C(=O)NOCCO)cc21 [selumetinib] (first compound 0.2 µM, partner dose 0.015 µM) | 105

Some of the entries above in another layout.

| Row | Structure (SMILES) | cleaved PARP positive nuclei fraction [%] |
| --- | --- | --- |
| 19 | CCCCCCCCCCCCCCCCCCOP(=O)([O-])OC1CC[N+](C)(C)CC1 [Perifosine] + CCCCCCCCc1ccc(CCC(N)(CO)CO)cc1 [fingolimod] (first compound 0.4 µM, partner dose 2 µM) | 99 |
| 20 | CC[C@]1(O)C[C@H]2CN(CCc3c([nH]c4ccccc34)[C@@](C(=O)OC)(c3cc4c(cc3OC)N(C=O)[C@H]3[C@@](O)(C(=O)OC)[C@H](OC(C)=O)[C@]5(CC)C=CCN6CC[C@]43[C@@H]65)C2)C1 [vincristine] + Nc1ncn([C@H]2C[C@H](O)[C@@H](CO)O2)c(=O)n1 [decitabine] (first compound 0.0001 µM, partner dose 0.1 µM) | 98.8 |

Reference: the supplement of paper PMC4604168 (melanoma cell lines)
